Laboratory results from PubChem BioAssay AID1508600 (Functional Genomics Laboratory (NCATS/FGL), 2020).
Among all 53,000 sequences or so, about 3,700 (7%) were called active.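 The calls were made as follows: active = gene knockdowns whose robust z-score for IL-1 alpha signal is at least 2 or at most -2, so actives lie on both sides; inactive = the rest.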 The list shows a part of the results.

assay: Components of the Cytosolic LPS Sensing Pathway: Gene Identification via Genome-wide siRNA Screen; conditions: RAW264.7 macrophages, IL-1a HTRF, actives lie on both sides, screened at 100 nM (by protocol), cells primed 5 h with Pam3CSK4 first;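 also: robust z of the log signal after scaling to non-targeting control siRNA wells of the plate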
How it was run: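 Knockdown: 100 nM siRNA, 48h, RAW264.7. Stimulation: Pam3CSK4 5 h, then LipidA via TransIT-TKO 24 h. Output: supernatant IL-1a HTRF, negative-control-normalized, log robust z-score; viability by CellTiter-Glo.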

z-score, active:
GGGCUGAGGAGAAAAUGCATT against Meg3 -2.37
GGAUUUUGUCGGCAAGGCCTT against Ap5s1 -3.12
CCCUCACAGUAACCUGUCGTT against Espl1 -2.56

z-score, inactive:
GCCUCAACAUGGAAUGUCGTT against Ppard -0.753
GGUUUUGCACAGCAUUGGUTT against Efna1 -1.02
CGAUGUGACUAUUUGUUGATT against Snx11 0.425
CCAGAAGUUAGAACAGUUCTT against Rp9 1.49
CGACCUGAAAUCUCAAGUUTT against Clec3a 0.438
GGAGUUCGACAUUAGCGGATT against Ehf 0.0965
CGACAUAGCUUCUGUACUGTT against Spaca9 -1.42
GCCAAUAUGCUUAAUUAGATT against Il7 -0.0442
GGGAUGGCCAUAGAACAGATT against Echdc2 -0.211
GGAAGAUUUAUUUCACGGATT against Apmap -0.0913
GGGUGAUGACGCAAUAUGCTT against Kcnma1 -0.121
GGUACUCAACAUGAUGCCCTT against Nudt16l1 -0.36
CCUCGUGUGGAAUUUGAUCTT against Mug1 -0.886
GGCUGAGGCAGCACUUACUTT against Jph3 -1.25
GCCACUUAAUGUCACUUUATT against Bag2 0.652
GGGAAUCACCCUGAGAAAGTT against Ccndbp1 -0.269
GCCAUAGGAAAUUGCUAUUTT against Triqk 0.38
AAAGCUUAUAACCAUCAACTT against AA467197 -0.704
UCUACAAGUGGAUCACGGATT against Foxj1 1.89
CCCAGAGACCUUUAUCAAUTT against Fbxl14 -0.524
GGCAGUGUGAAGACAUUGATT against Scube1 -0.318
GGCUGUUACAACAAAGGAATT against Lin9 0.0959
GGACUUCACUGAAGAUUCATT against Acbd4 -0.0667
CCUUGUUUCUAUCAAGACUTT against Scamp1 -0.00777
GGGUGCAAGUCGUUUCUCUTT against Uggt1 -1.89
GGAAGGAAACAGAAAAGUATT against Gen1 -0.835
GCCUGUACAUCAUGCGUGUTT against Rprm -0.00211
GGAAAGAUUUUCAUUUGAGTT against Zmat1 0.348
GCAUUACCUGUAGUCUAUGTT against Itln1 1.34
GGAGUAUGCGUACCUGAAGTT against Nr0b2 -0.903
GGAACCAUAAAUGUCACUUTT against Mgat4c 0.273
GGACCUAAGGGAUCUAUUGTT against Col5a3 0.000962
CCUCUAGCUCCUAACCAUUTT against 6030498E09Rik -1.18
CCUAUACCCUGGAAAGGCATT against Pigz 1.59
GCCGCUUGGAGGAUAUCUATT against Wdr91 -1.95
GGGUCAAUCUAAAUAUGUGTT against Apoo 1.53
CCUGAUGUGAAGAAAUCAATT against Akap10 0.851
GGAAGUUUUGAUCACGAUUTT against Terb1 0.97
GCCAAAAACGGGCAUAUUGTT against Fech -1.12
GGCUUCUUUUUAAAAGUAGTT against Pcid2 -1.28
GGAGAGAUGUAGAAUAUGGTT against Marchf2 0.502
GGAGAGACCACCUUUUGCUTT against AI837181 0.596
GGAACUUAUAUCUGCGCCATT against Gprin3 0.868
GGAAAUGAGUGAAGAUGAATT against Cdk11b -0.186
GCCGAAGAGGACAUCAUUGTT against Auts2 1.46
GGUCAAAUAGGGAACCUAGTT against Gm4827 0.752
GGAAGAGUGUCUAAAUGUATT against Cbwd1 0.849
GGCUGUGGGUCUAUUCUACTT against Kdm8 0.288
GGAGAACUGUCAGAACGAGTT against Gpx2 -1.56
GGAAUGGAGAGAUCAGUAGTT against Cox7b 0.45
GGUAUUUCACAAUCUUCUCTT against Pmpca -0.684

Nothing new here: an excerpt of the list.
z-score, inactive:
GCCGAAGAGGACAUCAUUGTT against Auts2 1.46
GGUCAAAUAGGGAACCUAGTT against Gm4827 0.752
